Source: patent publication US5739311
For some assays here: No signal at the amounts used counts as a negative. For some assays here: Where a protein sequence is shown, tags need not be part of it. For some assays here: Construct, isoform or probe ends are uncertain for at least one entry.

Experiments:
Assay in all cases: enzyme reaction in vitro
BstN I = conditions: no significant cleavage of single strand; 50 mM NaCl-type standard conditions of Example II; purified native protein; protein details: New England Biolabs; single-stranded DNA
ScrF I = target: T1, ScrF I (UniProt O34104); conditions: complete cleavage; 100 mM NaCl, 5 mM MgCl2; purified native protein; protein details: New England Biolabs; single-stranded DNA
T1 sequence (looked up, limits assumed): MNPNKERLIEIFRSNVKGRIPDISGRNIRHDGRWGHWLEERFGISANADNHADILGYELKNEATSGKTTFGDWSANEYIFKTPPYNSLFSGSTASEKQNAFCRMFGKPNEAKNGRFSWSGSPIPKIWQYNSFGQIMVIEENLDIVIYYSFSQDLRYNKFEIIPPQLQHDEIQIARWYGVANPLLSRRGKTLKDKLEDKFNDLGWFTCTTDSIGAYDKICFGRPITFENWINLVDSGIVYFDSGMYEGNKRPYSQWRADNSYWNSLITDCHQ

Mva I = target: T2, Mva I (UniProt Q8RNV5); conditions: no significant cleavage; 25 mM NaCl, 10 mM MgCl2; purified native protein; protein details: Boehringer Mannheim; single-stranded DNA
T2 sequence (looked up, limits assumed): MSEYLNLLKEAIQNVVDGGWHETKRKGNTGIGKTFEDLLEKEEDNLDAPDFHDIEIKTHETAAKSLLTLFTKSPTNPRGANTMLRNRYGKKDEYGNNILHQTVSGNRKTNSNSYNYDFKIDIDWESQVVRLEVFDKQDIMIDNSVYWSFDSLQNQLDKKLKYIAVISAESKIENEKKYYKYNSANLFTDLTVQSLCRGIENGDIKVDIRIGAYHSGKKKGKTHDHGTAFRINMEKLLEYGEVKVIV

Msp I = target: T3, Msp I (UniProt P11405); conditions: PS, all linkages of (-) strand; (+) strand phosphodiester; partial cleavage; 20 units, 0.5 ug DNA, 1 h; purified native protein; protein details: New England Biolabs; only the motif is given
T3 sequence (looked up, limits assumed): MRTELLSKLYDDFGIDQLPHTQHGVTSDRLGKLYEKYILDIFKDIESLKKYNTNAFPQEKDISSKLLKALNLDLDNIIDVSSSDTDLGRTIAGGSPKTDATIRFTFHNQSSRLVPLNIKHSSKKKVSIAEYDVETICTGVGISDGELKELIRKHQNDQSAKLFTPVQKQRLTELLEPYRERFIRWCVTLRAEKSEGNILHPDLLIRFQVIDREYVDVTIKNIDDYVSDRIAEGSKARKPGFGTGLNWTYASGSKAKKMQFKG

Taq alpha I = target: T4, Taq alpha I (UniProt P14386); conditions: PS, all linkages of (-) strand; (+) strand phosphodiester; complete cleavage; optimum 50 mM NaCl, 1-2 mM MgCl2 (Table 2); purified native protein; protein details: New England Biolabs; only the motif is given
T4 sequence (looked up, limits assumed): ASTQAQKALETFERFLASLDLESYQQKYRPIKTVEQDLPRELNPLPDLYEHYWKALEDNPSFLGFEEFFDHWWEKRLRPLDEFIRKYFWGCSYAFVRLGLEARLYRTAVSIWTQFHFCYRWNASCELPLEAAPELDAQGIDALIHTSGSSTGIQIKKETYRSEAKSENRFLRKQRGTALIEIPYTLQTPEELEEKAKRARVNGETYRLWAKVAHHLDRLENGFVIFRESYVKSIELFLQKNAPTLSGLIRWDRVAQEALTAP

Cla I = conditions: PS, all linkages of (-) strand; (+) strand phosphodiester; complete cleavage; 20 units, 0.5 ug DNA, 1 h; purified native protein; protein details: New England Biolabs
HinP I = HinP I (UniProt Q5I6E6); conditions: PS, all linkages of (-) strand; (+) strand phosphodiester; complete cleavage; optimum 50 mM NaCl, 10 mM MgCl2 (Table 2); purified native protein; protein details: New England Biolabs; only the motif is given
Hae III = target: T5, Hae III (UniProt O68584); conditions: PS, all linkages of (-) strand; (+) strand phosphodiester; complete cleavage; optimum 0 mM NaCl, 2-5 mM MgCl2 (Table 2); purified native protein; protein details: New England Biolabs; only the motif is given
T5 sequence (looked up, limits assumed): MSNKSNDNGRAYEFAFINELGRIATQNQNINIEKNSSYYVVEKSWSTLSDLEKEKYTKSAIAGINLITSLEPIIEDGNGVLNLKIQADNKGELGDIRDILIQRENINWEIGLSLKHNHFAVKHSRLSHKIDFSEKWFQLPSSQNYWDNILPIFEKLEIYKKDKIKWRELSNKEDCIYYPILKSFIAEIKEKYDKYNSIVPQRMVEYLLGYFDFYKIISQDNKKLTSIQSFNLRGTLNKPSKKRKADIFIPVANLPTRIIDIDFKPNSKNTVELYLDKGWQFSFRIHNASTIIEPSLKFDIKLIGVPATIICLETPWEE

## GAAGCCCGGACAGCCCAGGGGAGCCCGGCCAGGCGCTCGAGAAGCCCGGACAGCCCAGGGGAGCCCTCGCCTATTGTTAAAGTGTGTCCT [single-stranded multi-site substrate]
BstN I
  activity on this sequence: not active
ScrF I
  activity on this sequence: active
Mva I
  activity on this sequence: not active

## CCGG (double strand) [M13 dsDNA, Msp I site]
Msp I
  activity on this sequence: active

## TCGA (double strand) [M13 dsDNA, Taq alpha I site]
Taq alpha I
  activity on this sequence: active

## ATCGAT (double strand) [M13 dsDNA, Cla I site]
Cla I
  activity on this sequence: active

## GCGC (double strand) [M13 dsDNA, HinP I site]
HinP I
  activity on this sequence: active

## GGCC (double strand) [M13 dsDNA, Hae III site]
Hae III
  activity on this sequence: active
